# The supplement of paper PMC10849652
# The chains behind the UniProt entries cited, without tags or fusion partners. Where a name states a change or a piece, a line headed by the entry shows the natural chain unless it says otherwise.
# UniProt Q92600, whole entry, looked up: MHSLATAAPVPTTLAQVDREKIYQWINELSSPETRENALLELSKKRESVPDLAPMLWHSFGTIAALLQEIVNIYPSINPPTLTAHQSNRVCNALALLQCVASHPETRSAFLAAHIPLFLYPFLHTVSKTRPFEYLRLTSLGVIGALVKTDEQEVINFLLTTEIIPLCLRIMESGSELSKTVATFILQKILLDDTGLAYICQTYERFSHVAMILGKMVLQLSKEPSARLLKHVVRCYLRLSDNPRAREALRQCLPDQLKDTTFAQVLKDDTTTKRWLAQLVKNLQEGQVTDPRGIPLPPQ
# UniProt Q9UBW8: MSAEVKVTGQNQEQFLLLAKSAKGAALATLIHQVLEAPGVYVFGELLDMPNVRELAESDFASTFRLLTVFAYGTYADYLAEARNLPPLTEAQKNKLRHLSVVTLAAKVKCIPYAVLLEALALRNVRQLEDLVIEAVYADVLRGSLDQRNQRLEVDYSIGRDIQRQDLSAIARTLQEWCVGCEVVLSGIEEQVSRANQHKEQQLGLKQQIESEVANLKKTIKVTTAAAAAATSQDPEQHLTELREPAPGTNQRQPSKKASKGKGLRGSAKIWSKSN
# UniProt P31146: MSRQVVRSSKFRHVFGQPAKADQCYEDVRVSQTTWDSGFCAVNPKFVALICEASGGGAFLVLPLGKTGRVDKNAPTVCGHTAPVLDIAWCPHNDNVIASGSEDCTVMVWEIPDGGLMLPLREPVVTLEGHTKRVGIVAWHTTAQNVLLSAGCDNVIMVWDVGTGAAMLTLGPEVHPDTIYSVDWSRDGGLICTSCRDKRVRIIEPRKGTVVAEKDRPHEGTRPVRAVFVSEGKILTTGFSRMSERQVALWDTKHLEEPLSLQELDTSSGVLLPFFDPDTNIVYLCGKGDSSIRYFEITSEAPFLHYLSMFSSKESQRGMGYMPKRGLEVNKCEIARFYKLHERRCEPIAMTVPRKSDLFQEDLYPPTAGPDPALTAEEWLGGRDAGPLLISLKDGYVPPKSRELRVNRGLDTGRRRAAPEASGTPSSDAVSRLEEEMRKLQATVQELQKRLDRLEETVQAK
# UniProt P23786: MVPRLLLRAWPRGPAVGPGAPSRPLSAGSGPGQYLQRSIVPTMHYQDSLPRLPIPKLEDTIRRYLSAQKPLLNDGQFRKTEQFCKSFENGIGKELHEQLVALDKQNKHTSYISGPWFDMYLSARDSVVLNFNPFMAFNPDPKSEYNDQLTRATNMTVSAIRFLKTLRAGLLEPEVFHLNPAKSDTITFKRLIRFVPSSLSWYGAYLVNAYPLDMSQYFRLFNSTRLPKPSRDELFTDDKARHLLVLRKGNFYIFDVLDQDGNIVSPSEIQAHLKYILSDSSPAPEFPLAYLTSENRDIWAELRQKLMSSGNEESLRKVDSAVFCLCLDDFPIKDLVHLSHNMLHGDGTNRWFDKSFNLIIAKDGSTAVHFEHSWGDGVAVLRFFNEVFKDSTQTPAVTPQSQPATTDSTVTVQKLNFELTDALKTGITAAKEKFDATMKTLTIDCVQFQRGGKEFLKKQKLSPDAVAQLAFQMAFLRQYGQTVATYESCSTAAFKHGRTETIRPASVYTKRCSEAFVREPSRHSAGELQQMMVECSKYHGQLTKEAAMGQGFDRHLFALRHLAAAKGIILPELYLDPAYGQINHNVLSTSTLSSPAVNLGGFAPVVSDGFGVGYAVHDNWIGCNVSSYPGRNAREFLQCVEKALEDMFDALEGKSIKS
# UniProt Q5RI15: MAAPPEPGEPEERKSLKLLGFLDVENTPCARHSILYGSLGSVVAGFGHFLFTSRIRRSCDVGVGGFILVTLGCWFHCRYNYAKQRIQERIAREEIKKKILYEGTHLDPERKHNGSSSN
# UniProt O75131: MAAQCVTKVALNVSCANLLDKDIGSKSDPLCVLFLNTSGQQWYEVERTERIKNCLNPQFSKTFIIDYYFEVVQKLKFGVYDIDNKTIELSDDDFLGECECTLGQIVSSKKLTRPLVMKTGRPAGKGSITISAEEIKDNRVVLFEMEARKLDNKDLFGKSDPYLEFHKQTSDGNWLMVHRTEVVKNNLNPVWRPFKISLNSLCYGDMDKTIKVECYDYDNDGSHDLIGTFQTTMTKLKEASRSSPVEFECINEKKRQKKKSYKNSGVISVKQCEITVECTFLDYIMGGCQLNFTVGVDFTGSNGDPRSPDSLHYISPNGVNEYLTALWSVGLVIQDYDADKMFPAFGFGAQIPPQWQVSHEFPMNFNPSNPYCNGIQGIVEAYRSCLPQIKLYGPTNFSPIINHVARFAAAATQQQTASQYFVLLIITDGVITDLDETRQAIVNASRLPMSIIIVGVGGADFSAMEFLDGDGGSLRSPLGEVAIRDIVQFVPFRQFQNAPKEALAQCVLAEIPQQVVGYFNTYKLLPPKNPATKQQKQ
# UniProt P50416: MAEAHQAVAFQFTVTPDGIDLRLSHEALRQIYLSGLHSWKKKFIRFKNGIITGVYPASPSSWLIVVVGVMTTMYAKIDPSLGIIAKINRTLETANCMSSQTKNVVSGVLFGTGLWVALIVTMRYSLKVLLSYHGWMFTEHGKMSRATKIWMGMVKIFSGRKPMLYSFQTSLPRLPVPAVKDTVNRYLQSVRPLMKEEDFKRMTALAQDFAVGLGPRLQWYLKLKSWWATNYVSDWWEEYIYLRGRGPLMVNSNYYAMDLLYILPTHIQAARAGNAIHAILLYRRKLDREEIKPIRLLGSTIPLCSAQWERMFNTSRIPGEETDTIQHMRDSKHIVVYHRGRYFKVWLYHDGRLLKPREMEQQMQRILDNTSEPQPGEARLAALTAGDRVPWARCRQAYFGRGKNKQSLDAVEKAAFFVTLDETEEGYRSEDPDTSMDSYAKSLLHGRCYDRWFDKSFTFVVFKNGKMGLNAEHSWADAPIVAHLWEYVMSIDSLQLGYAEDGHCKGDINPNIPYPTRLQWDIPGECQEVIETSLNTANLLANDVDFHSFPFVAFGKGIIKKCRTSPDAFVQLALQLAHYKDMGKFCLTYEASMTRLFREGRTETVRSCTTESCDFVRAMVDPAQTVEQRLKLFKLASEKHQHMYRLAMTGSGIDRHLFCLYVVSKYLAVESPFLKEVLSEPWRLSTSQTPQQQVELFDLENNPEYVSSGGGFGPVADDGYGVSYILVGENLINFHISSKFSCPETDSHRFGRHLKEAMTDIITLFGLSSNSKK
# UniProt Q9H9Q2: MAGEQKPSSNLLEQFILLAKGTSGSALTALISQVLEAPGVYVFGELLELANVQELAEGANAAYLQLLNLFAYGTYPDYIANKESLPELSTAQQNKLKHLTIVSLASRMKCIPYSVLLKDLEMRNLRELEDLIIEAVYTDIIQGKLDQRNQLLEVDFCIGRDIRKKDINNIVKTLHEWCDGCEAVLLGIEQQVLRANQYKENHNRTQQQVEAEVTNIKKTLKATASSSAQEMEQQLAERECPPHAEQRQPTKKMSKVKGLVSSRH
# UniProt P38432, whole entry, looked up: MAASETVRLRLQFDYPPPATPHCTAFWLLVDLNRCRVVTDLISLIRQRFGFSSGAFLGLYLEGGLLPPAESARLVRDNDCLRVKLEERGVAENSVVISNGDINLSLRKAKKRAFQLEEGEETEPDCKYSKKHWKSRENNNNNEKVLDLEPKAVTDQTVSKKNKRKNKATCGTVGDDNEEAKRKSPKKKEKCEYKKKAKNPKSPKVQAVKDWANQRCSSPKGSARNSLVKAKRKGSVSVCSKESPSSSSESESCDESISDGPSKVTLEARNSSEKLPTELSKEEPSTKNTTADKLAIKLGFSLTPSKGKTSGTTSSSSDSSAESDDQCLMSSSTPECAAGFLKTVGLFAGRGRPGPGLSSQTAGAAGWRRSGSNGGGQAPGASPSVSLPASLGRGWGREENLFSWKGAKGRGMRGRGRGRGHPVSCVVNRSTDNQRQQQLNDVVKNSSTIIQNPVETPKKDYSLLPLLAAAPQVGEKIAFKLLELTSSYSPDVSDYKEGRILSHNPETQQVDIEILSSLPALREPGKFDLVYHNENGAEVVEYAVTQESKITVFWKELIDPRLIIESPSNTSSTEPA
# UniProt Q9GZY4: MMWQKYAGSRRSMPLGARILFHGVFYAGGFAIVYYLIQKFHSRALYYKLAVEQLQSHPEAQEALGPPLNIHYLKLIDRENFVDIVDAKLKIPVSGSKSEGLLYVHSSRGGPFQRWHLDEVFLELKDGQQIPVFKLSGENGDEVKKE
# UniProt Q14019: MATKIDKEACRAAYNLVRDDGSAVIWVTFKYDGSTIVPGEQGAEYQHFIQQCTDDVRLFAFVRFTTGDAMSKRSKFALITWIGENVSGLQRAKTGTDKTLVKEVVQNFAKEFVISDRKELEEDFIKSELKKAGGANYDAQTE
# UniProt Q9H9A5, whole entry, looked up: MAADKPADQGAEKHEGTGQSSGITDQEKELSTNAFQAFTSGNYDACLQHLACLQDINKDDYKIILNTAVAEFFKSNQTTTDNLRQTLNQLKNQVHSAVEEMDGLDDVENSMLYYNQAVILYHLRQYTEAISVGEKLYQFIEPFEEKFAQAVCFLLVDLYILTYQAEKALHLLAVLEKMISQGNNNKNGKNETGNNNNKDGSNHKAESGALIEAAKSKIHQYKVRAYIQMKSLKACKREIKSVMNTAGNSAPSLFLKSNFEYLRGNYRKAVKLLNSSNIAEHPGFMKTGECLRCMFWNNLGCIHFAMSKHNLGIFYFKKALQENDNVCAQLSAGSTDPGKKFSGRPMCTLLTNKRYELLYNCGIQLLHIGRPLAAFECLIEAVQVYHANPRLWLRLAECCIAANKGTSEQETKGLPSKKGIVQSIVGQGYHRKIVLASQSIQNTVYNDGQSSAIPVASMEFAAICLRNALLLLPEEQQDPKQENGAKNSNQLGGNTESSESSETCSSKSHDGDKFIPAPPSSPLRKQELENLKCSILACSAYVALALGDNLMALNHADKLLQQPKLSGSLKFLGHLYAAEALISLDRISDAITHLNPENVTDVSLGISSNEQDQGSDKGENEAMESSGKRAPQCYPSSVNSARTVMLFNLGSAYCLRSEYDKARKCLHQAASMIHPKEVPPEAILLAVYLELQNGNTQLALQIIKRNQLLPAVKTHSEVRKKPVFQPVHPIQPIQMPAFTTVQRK
# UniProt Q13057: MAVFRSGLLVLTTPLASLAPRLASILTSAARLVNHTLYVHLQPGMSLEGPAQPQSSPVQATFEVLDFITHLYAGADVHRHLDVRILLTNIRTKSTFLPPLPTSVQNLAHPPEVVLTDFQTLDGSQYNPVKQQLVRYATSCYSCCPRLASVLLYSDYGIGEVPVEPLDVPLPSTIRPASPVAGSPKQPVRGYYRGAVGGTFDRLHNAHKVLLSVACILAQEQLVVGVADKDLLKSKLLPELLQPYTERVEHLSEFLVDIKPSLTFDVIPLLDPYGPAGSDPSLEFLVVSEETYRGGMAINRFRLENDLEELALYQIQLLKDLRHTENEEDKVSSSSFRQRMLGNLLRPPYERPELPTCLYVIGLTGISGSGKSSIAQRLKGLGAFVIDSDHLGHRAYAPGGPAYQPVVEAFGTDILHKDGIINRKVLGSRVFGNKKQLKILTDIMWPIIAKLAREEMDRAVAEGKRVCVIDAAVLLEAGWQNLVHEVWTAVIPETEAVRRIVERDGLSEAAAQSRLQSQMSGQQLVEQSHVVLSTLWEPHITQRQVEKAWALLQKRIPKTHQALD
# UniProt Q14746: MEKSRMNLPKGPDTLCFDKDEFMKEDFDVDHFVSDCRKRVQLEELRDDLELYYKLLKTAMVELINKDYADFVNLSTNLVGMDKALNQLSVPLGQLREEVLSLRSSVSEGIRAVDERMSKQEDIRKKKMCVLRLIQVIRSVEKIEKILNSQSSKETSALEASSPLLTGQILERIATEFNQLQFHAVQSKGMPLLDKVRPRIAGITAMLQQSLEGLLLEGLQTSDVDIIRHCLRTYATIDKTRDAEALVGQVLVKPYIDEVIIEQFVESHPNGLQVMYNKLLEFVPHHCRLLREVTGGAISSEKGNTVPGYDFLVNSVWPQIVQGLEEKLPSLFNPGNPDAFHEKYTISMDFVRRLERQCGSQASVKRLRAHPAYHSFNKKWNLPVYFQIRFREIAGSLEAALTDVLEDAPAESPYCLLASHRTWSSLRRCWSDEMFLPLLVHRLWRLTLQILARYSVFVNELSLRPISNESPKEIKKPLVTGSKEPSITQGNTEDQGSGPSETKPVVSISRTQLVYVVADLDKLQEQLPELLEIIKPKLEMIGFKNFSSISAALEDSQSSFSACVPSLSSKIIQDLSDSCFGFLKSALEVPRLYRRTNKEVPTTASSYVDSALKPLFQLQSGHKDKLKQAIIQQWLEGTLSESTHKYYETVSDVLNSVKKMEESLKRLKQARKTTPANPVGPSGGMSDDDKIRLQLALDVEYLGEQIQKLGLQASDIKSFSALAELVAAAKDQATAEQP
# UniProt Q5JTJ3: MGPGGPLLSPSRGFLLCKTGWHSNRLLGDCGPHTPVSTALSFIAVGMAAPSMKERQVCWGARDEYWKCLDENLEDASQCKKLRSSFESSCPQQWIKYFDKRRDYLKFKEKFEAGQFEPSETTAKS
# Some of the results follow.
# Key:
# Test in all cases: log2 fold change, soluble protein after heating vs DMSO (PISA); higher = thermal stabilisation; K562 lysate, 10 uM; active = over 0.2 and 3.5 SD of the protein, either way, in both replicates (recomputed)
# lapatinib = compound: CS(=O)(=O)CCNCc1ccc(-c2ccc3ncnc(Nc4ccc(OCc5cccc(F)c5)c(Cl)c4)c3c2)o1 [lapatinib]
# Method in brief: (§1)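 Thermal stability, expressed as log-two fold change relative to solvent controls, is given from duplicates. Crude K562 extract in PBS pH 7.4 with 1 mM MgCl2, at 1 mg/mL protein, was treated with 10 μM compound for 30 min and heated in aliquots for 3 min across 48°C-58°C. After pooling, adjustment to 0.5% NP-40 at 4°C and centrifugation at 21,000xg for 90 min, supernatant protein was measured by TMTpro 16plex LC-MS/MS with channel sums equalised.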
# pictilisib = compound: CS(=O)(=O)N1CCN(Cc2cc3nc(-c4cccc5[nH]ncc45)nc(N4CCOCC4)c3s2)CC1 [pictilisib]
# Method in brief: as §1
# crizotinib = compound: C[C@@H](Oc1cc(-c2cnn(C3CCNCC3)c2)cnc1N)c1c(Cl)ccc(F)c1Cl [crizotinib]
# Method in brief: as §1
# [1] = compound: C[C@H](C1=CC=C(C=C1)C(=O)NC2=C3C=CNC3=NC=C2)N
# Method in brief: as §1
# duvelisib = compound: C[C@H](Nc1ncnc2nc[nH]c12)c1cc2cccc(Cl)c2c(=O)n1-c1ccccc1 [duvelisib]
# Method in brief: as §1
# gandotinib = compound: Cc1cc(Nc2cc(CN3CCOCC3)c3nc(C)c(Cc4ccc(Cl)cc4F)n3n2)n[nH]1 [gandotinib]
# Method in brief: as §1
# tozasertib = compound: Cc1cc(Nc2cc(N3CCN(C)CC3)nc(Sc3ccc(NC(=O)C4CC4)cc3)n2)n[nH]1 [tozasertib]
# Method in brief: as §1
# doramapimod = compound: Cc1ccc(-n2nc(C(C)(C)C)cc2NC(=O)Nc2ccc(OCCN3CCOCC3)c3ccccc23)cc1 [doramapimod]
# Method in brief: as §1
# bafetinib = compound: Cc1ccc(NC(=O)c2ccc(CN3CC[C@H](N(C)C)C3)c(C(F)(F)F)c2)cc1Nc1nccc(-c2cncnc2)n1 [bafetinib]
# Method in brief: as §1
# [2] = compound: Cc1cccc(CC(=O)N2CCc3c2ccc(-c2cn(C)c4ncnc(N)c24)c3F)n1
# Method in brief: as §1
# nilotinib = compound: Cc1cn(-c2cc(NC(=O)c3ccc(C)c(Nc4nccc(-c5cccnc5)n4)c3)cc(C(F)(F)F)c2)cn1 [nilotinib]
# Method in brief: as §1
# [3] = compound: Cc1nc(Nc2n[nH]c3c2CN(C(=O)N[C@H](CN(C)C)c2ccccc2)C3(C)C)c2sccc2n1
# Method in brief: as §1
# dasatinib = compound: Cc1nc(Nc2ncc(C(=O)Nc3c(C)cccc3Cl)s2)cc(N2CCN(CCO)CC2)n1 [dasatinib]
# Method in brief: as §1
# [4] = compound: Cc1ncc(-c2ccnc(Nc3ccc(S(C)(=O)=O)cc3)n2)n1C(C)C
# Method in brief: as §1
# [5] = compound: Cn1cc(-c2ccc3c(c2)CCN3C(=O)Cc2cccc(C(F)(F)F)c2)c2c(N)ncnc21
# Method in brief: as §1
# quisinostat = compound: Cn1cc(CNCC2CCN(c3ncc(C(=O)NO)cn3)CC2)c2ccccc21 [quisinostat]
# Method in brief: as §1
# tipifarnib = compound: Cn1cncc1[C@@](N)(c1ccc(Cl)cc1)c1ccc2c(c1)c(-c1cccc(Cl)c1)cc(=O)n2C [tipifarnib]
# Method in brief: as §1
# [6] = compound: NC(=O)Nc1cc(-c2cccc(F)c2)sc1C(=O)N[C@H]1CCCNC1
# Method in brief: as §1
# [7] = compound: NC(=O)c1cnc(N[C@@H]2CCCC[C@@H]2N)nc1Nc1cccc(-n2nccn2)c1
# Method in brief: as §1
# [8] = compound: NC1(c2ccc(-c3nc4ccn5c(=O)[nH]nc5c4cc3-c3ccccc3)cc2)CCC1
# Method in brief: as §1
Target,log2 fold change (lapatinib),log2 fold change (pictilisib),log2 fold change (crizotinib),log2 fold change [1],log2 fold change (duvelisib),log2 fold change (gandotinib),log2 fold change (tozasertib),log2 fold change (doramapimod),log2 fold change (bafetinib),log2 fold change [2],log2 fold change (nilotinib),log2 fold change [3],log2 fold change (dasatinib),log2 fold change [4],log2 fold change [5],log2 fold change (quisinostat),log2 fold change (tipifarnib),log2 fold change [6],log2 fold change [7],log2 fold change [8]
CNOT9 (UniProt Q92600),inactive: -0.005,inactive: -0.057,inactive: -0.038,inactive: -0.028,inactive: 0,inactive: -0.042,inactive: 0.037,inactive: -0.003,inactive: 0.019,inactive: 0.048,inactive: 0.021,inactive: -0.015,inactive: -0.023,inactive: 0.016,inactive: -0.016,inactive: -0.044,inactive: -0.043,inactive: 0.022,inactive: 0.01,inactive: -0.022
COPS7A (UniProt Q9UBW8),inactive: 0.004,inactive: 0.028,inactive: 0.019,inactive: -0.016,inactive: -0.005,inactive: -0.016,inactive: 0.041,inactive: -0.011,inactive: -0.002,inactive: 0.046,inactive: 0.037,inactive: 0.014,inactive: 0.006,inactive: 0.037,inactive: 0.027,inactive: -0.021,inactive: 0.015,inactive: 0.024,inactive: 0.01,inactive: 0.015
CORO1A (UniProt P31146),inactive: -0.018,inactive: -0.058,inactive: -0.008,inactive: -0.069,inactive: 0.038,inactive: 0.037,inactive: 0.089,inactive: 0.009,inactive: -0.028,inactive: -0.001,inactive: 0.003,inactive: -0.012,inactive: -0.146,inactive: 0.022,inactive: 0.034,inactive: -0.028,inactive: 0.032,inactive: -0.015,inactive: -0.017,inactive: -0.026
CPT2 (UniProt P23786),inactive: -0.054,inactive: 0.187,inactive: -0.124,inactive: -0.021,inactive: 0.06,inactive: 0.069,inactive: 0.036,inactive: -0.012,inactive: -0.085,inactive: -0.06,inactive: -0.033,inactive: -0.01,inactive: -0.101,inactive: 0.013,inactive: 0.065,inactive: -0.131,inactive: -0.011,inactive: 0.035,inactive: -0.013,inactive: -0.001
COX20 isoform 2 (UniProt Q5RI15),inactive: 0.016,inactive: 0.186,inactive: 0.054,active: 0.455,inactive: -0.007,inactive: -0.144,inactive: -0.053,inactive: -0.036,inactive: 0.144,inactive: -0.273,inactive: 0.051,inactive: -0.023,inactive: 0.07,inactive: -0.024,inactive: 0.013,inactive: -0.017,inactive: 0.117,inactive: -0.026,inactive: -0.058,inactive: -0.03
CPNE3 (UniProt O75131),inactive: 0.024,inactive: 0.005,inactive: -0.029,inactive: -0.099,inactive: 0.028,inactive: 0.074,inactive: 0.014,inactive: 0.014,inactive: 0.007,inactive: 0.089,inactive: -0.016,inactive: 0.014,inactive: -0.052,inactive: -0.003,inactive: 0.024,inactive: -0.029,inactive: -0.01,inactive: -0.006,inactive: 0.008,inactive: -0.04
COPS4 (UniProt Q9BT78),inactive: -0.005,inactive: -0.039,inactive: 0.052,inactive: 0.037,inactive: -0.005,inactive: -0.081,inactive: 0.006,inactive: -0.036,inactive: 0.034,inactive: -0.099,inactive: 0.016,inactive: 0.001,inactive: 0.002,inactive: -0.01,inactive: 0,inactive: 0.074,inactive: 0.008,inactive: -0.01,inactive: 0.013,inactive: 0.024
CPT1A (UniProt P50416),inactive: 0.013,inactive: 0.014,inactive: 0.114,inactive: 0.009,inactive: 0.021,inactive: 0.057,inactive: 0.037,inactive: 0.038,inactive: -0.056,inactive: -0.027,inactive: -0.012,inactive: 0.049,inactive: 0.015,inactive: -0.022,inactive: 0.008,active: 0.308,inactive: 0.056,inactive: -0.09,inactive: -0.028,inactive: -0.038
COPS7B (UniProt Q9H9Q2),inactive: -0.013,inactive: -0.036,inactive: 0,inactive: 0.181,inactive: 0.042,inactive: -0.139,inactive: 0.173,inactive: 0.076,inactive: -0.019,inactive: 0.031,inactive: -0.057,inactive: 0.025,inactive: -0.014,inactive: 0.097,inactive: -0.03,inactive: -0.017,inactive: 0.104,inactive: -0.021,inactive: 0.019,inactive: -0.021
COIL (UniProt P38432),inactive: 0.006,inactive: -0.006,inactive: -0.022,inactive: 0.076,inactive: -0.05,inactive: -0.037,inactive: 0.012,inactive: 0.029,inactive: -0.018,inactive: -0.079,inactive: -0.027,inactive: -0.022,inactive: 0.067,inactive: -0.107,inactive: 0.015,inactive: -0.079,inactive: 0.033,inactive: 0.02,inactive: -0.001,inactive: 0.016
COA1 (UniProt Q9GZY4),inactive: -0.043,inactive: 0,inactive: 0.001,inactive: -0.042,inactive: 0.026,inactive: 0.059,inactive: -0.011,inactive: 0.039,inactive: -0.111,inactive: 0.042,inactive: -0.026,inactive: 0,inactive: -0.002,inactive: -0.006,inactive: 0.006,inactive: -0.011,inactive: 0.007,inactive: -0.031,inactive: 0.017,inactive: -0.029
COTL1 (UniProt Q14019),inactive: 0.007,inactive: 0.016,inactive: 0.045,inactive: 0.245,inactive: -0.009,inactive: -0.062,inactive: 0.024,inactive: -0.044,inactive: 0.102,inactive: -0.122,inactive: 0.021,inactive: 0.003,inactive: 0.024,inactive: 0.031,inactive: 0.023,inactive: 0.017,inactive: 0.055,inactive: -0.075,inactive: -0.028,inactive: -0.011
CNOT10 (UniProt Q9H9A5),inactive: 0.013,inactive: 0.018,inactive: -0.016,inactive: -0.05,inactive: 0.002,inactive: -0.097,inactive: 0.007,inactive: -0.007,inactive: -0.031,inactive: 0.113,inactive: -0.014,inactive: -0.007,inactive: -0.061,inactive: 0.019,inactive: -0.013,inactive: -0.01,inactive: -0.047,inactive: 0.063,inactive: 0.018,inactive: -0.015
COASY isoform 2 (UniProt Q13057),inactive: -0.01,inactive: 0.021,inactive: -0.084,inactive: -0.072,inactive: 0.004,inactive: 0.009,inactive: -0.022,inactive: -0.007,inactive: -0.043,inactive: 0.029,inactive: -0.043,inactive: -0.015,inactive: -0.071,inactive: -0.023,inactive: 0.069,inactive: -0.078,inactive: 0.012,inactive: 0.041,inactive: -0.023,inactive: -0.046
COG2 (UniProt Q14746),inactive: -0.009,inactive: -0.03,inactive: -0.041,inactive: -0.025,inactive: 0.025,inactive: -0.118,inactive: 0.012,inactive: 0.009,inactive: -0.027,inactive: 0.02,inactive: 0.024,inactive: 0.008,inactive: -0.024,inactive: 0.096,inactive: -0.002,inactive: -0.029,inactive: -0.06,inactive: 0.055,inactive: 0.001,inactive: 0.009
COA6 isoform 2 (UniProt Q5JTJ3),inactive: -0.032,inactive: -0.062,inactive: 0.091,inactive: -0.062,inactive: 0.044,inactive: -0.009,inactive: 0.075,inactive: -0.052,inactive: 0.52,inactive: -0.106,inactive: -0.258,inactive: -0.181,inactive: -0.03,inactive: -0.21,inactive: -0.024,inactive: -0.083,inactive: 0.014,inactive: 0,inactive: -0.04,inactive: 0

# 2 entries picked at random from the list so far:
Target,log2 fold change (lapatinib),log2 fold change (pictilisib),log2 fold change (crizotinib),log2 fold change [1],log2 fold change (duvelisib),log2 fold change (gandotinib),log2 fold change (tozasertib),log2 fold change (doramapimod),log2 fold change (bafetinib),log2 fold change [2],log2 fold change (nilotinib),log2 fold change [3],log2 fold change (dasatinib),log2 fold change [4],log2 fold change [5],log2 fold change (quisinostat),log2 fold change (tipifarnib),log2 fold change [6],log2 fold change [7],log2 fold change [8]
COTL1 (UniProt Q14019),inactive: 0.007,inactive: 0.016,inactive: 0.045,inactive: 0.245,inactive: -0.009,inactive: -0.062,inactive: 0.024,inactive: -0.044,inactive: 0.102,inactive: -0.122,inactive: 0.021,inactive: 0.003,inactive: 0.024,inactive: 0.031,inactive: 0.023,inactive: 0.017,inactive: 0.055,inactive: -0.075,inactive: -0.028,inactive: -0.011
CPNE3 (UniProt O75131),inactive: 0.024,inactive: 0.005,inactive: -0.029,inactive: -0.099,inactive: 0.028,inactive: 0.074,inactive: 0.014,inactive: 0.014,inactive: 0.007,inactive: 0.089,inactive: -0.016,inactive: 0.014,inactive: -0.052,inactive: -0.003,inactive: 0.024,inactive: -0.029,inactive: -0.01,inactive: -0.006,inactive: 0.008,inactive: -0.04
